Data source: PubChem BioAssay AID686937 (Drosophila RNAi Screening Center, 2013)
Test: 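Genes whose loss weakens secretory pathway function in fly cells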 (primary screen). Cell system: Drosophila S2 cells expressing secreted horseradish peroxidase. Reagents: long dsRNA against Drosophila genes. Time to read-out: about 5.5 days (5 days dsRNA, then 12 h reporter induction). Treatment: reporter expression induced after 5 days of dsRNA, read 12 h later; inducer not stated. Detection: 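After 5 days of dsRNA and 12 h of reporter induction, medium peroxidase read by chemiluminescence and scored as per-plate z-score; higher values mean more reporter released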. Reading the numbers: z-score: higher = more reporter secreted into medium.
The deposit covers about 23,000 reagents; below is a random part of those that have a named target and a result. 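Reduced-secretion tags in replicate 1 do not always agree with the z-scores; no criterion for assigning the tags was given.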 A plus sign joins genes that one reagent is predicted to hit. Further read-outs or replicates are left out here. No sequences are given here. Not stated in the record: the amount of reagent.

target	DRSC id	z-score, replicate 1	z-score, replicate 2	z-score, replicate 3
Erk7 (Extracellularly regulated kinase 7)	DRSC18127	0.27	0.44	
Erk7 (Extracellularly regulated kinase 7)	DRSC18227	0.39	0.55	
Erk7 (Extracellularly regulated kinase 7)	DRSC21895	0.68	0.31	
dsx (doublesex)	DRSC12649	0.11	-0.19	
dsx (doublesex)	DRSC16934	0.51	0.48	0.71
dsx (doublesex)	DRSC21495	0.22	-0.62	
Golgin104 (Golgin 104)	DRSC10459	0.06	0.25	
Uros2 (Uroporphyrinogen III synthase 2)	DRSC16505	0.2	0.14	
Gnf1 (Germ line transcription factor 1)	DRSC12351	-0.69	-1.63	
CG34327	DRSC19517	-0.23	-0.88	
CG34327	DRSC22380	0.69	1.02	
CG7924	DRSC10931	0.41	0.32	
cyc (cycle)	DRSC11337	0.21	0.07	
CG13028	DRSC09908	0.04	0.25	
Obp73a (Odorant-binding protein 73a)	DRSC09907	0.11	0.31	
Acp95EF + Spase22-23	DRSC14102	0.34	0.44	
CG6652	DRSC10686	0.48	0.39	
CG5506	DRSC10511	0.42	0.34	
PGRP-LC (Peptidoglycan recognition protein LC)	DRSC08980	0.09	0.36	
PGRP-LC (Peptidoglycan recognition protein LC)	DRSC10416	0.53	0.6	
PGRP-LC (Peptidoglycan recognition protein LC)	DRSC10417	0.52	0.37	
Fib (Fibrillarin)	DRSC04614	-0.17	-1.34	
CG14339	DRSC00369	0.03	0.12	
pho (pleiohomeotic)	DRSC17219	0.49	0.42	
CG42827	DRSC16116	0.27	0.02	0.09
Fancl	DRSC14550	0.54	0.35	
SA1 (Stromalin 1)	DRSC03424	0.4	0.43	
CG9962	DRSC00739	0.2	0.26	
sit (stuck in traffic)	DRSC15760	-1.04	0.34	
NSD (Nuclear receptor binding SET domain protein)	DRSC15691	0.37	0.55	
pins (partner of inscuteable)	DRSC17043	0.34	0.65	
CG14712	DRSC14935	-2.34	-2.03	
CG1428	DRSC03708	0.14	0.09	
Naglu (N-acetyl-alpha-glucosaminidase)	DRSC02267	0.21	0.23	
rdo (reduced ocelli)	DRSC02452	0.34	0.13	
to (takeout)	DRSC17086	0.27	0.09	
mRpL27 (mitochondrial ribosomal protein L27)	DRSC22568	-0.04	-0.19	
beat-Ia (beaten path Ia)	DRSC03489	0.73	0.23	
Bub3	DRSC14168	-0.17	-0.56	
wts (warts)	DRSC17096	-3.56	-3.86	
Acp24A4 (Accessory gland protein 24A4)	DRSC22352	-0.75	-0.07	
puml (pummelig)	DRSC06793	0.4	0.39	
nahoda	DRSC03954	0.16	0.25	
nahoda	DRSC04126	0.41	0.63	
Usp5 (Ubiquitin specific protease 5)	DRSC08244	-0.21	0.31	
Sdhaf3 (Succinate dehydrogenase assembly factor 3)	DRSC15020	-0.82	0.12	
CG11858	DRSC14412	0.24	0.16	0.25
CG14355	DRSC14818	0.33	0.32	
Prosbeta2 (Proteasome beta2 subunit)	DRSC11257	-5.66	-4.93	
CG11815	DRSC08209	0.55	0.37	
Agpat2 (1-Acylglycerol-3-phosphate O-acyltransferase 2)	DRSC03532	0.3	0.17	
CG15115	DRSC06537	0.62	0.38	
CG7213	DRSC10787	0.28	0.39	
CG13606	DRSC14609	0.38	0.31	
eg (eagle)	DRSC11885	0.23	0.48	
CG32445	DRSC11678	-0.77	-0.68	
Exo84 (Exocyst 84)	DRSC15965	0.08	-0.03	
CG31806	DRSC02787	-0.31	-0.08	
CG1701	DRSC06641	0.37	0.31	
CG10970	DRSC17772	0.49	0.29	
CG6961 + CG18259	DRSC19799	0.05	0.4	
CG6961 + CG18259	DRSC20019	0.51	0.2	
ltl (larval translucida)	DRSC10206	0.18	0.07	
ltl (larval translucida)	DRSC10870	0.21	0.17	
MTF-1 (Metal response element-binding Transcription Factor-1)	DRSC08983	0.09	0.39	
MTF-1 (Metal response element-binding Transcription Factor-1)	DRSC11217	-3.44	0.44	0.49
MTF-1 (Metal response element-binding Transcription Factor-1)	DRSC21341	-6.1	-4.84	
cGlr2 (cGAS-like receptor 2)	DRSC04017	-2.41		
Dyro (Dpt-YFP repressor by overexpression)	DRSC10598	0.1	0.33	
CG14118	DRSC10122	0.24	0.12	
CG3419 (retired record)	DRSC04368	0.15	0.14	
CG3419 (retired record)	DRSC04369	0.1	0.18	
Ephrin	DRSC17165	0.44	0.29	
CG15210	DRSC19656	0.5	0.56	
OstDelta (Oligosaccharide transferase Delta subunit)	DRSC06980	-2.6	-2.9	
pr (purple)	DRSC03596	-0.05	-0.01	
CG7800	DRSC16315	0.35	0.69	
Pex11ab (Peroxin 11a/b)	DRSC07145	0.28	0.12	
Atg9 (Autophagy-related 9)	DRSC06848	0.13	0.34	
ppk6 (pickpocket 6)	DRSC06062	0.25	0.22	
Rnmt (RNA guanine-7 methyltransferase)	DRSC03558	-0.11	-0.06	
Cyp9c1 (Cytochrome P450 9c1)	DRSC04607	0.1	0.01	

Copied from above for reference:
target	DRSC id	z-score, replicate 1	z-score, replicate 2	z-score, replicate 3
CG34327	DRSC22380	0.69	1.02	
CG7924	DRSC10931	0.41	0.32	
cyc (cycle)	DRSC11337	0.21	0.07	
CG13028	DRSC09908	0.04	0.25	
Obp73a (Odorant-binding protein 73a)	DRSC09907	0.11	0.31	
Acp95EF + Spase22-23	DRSC14102	0.34	0.44	
CG6652	DRSC10686	0.48	0.39	
